## Percent effect of library compounds

Chains of the proteins cited; added tags and fusions are not shown. Residues count along the entry.
UniProt A4I591, 1-473: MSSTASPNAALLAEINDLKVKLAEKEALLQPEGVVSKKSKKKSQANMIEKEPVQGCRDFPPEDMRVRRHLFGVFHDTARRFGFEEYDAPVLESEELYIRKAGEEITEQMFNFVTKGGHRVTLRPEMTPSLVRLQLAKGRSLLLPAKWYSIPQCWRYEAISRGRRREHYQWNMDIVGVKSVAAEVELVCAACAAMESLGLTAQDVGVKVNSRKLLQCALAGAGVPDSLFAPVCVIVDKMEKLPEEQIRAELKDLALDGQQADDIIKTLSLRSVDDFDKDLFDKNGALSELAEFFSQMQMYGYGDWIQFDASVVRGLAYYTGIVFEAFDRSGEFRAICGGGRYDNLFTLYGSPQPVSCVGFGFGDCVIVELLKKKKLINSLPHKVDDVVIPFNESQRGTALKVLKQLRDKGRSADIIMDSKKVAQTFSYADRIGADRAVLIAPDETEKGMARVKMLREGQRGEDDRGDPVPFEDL
UniProt I6X8D2, whole entry: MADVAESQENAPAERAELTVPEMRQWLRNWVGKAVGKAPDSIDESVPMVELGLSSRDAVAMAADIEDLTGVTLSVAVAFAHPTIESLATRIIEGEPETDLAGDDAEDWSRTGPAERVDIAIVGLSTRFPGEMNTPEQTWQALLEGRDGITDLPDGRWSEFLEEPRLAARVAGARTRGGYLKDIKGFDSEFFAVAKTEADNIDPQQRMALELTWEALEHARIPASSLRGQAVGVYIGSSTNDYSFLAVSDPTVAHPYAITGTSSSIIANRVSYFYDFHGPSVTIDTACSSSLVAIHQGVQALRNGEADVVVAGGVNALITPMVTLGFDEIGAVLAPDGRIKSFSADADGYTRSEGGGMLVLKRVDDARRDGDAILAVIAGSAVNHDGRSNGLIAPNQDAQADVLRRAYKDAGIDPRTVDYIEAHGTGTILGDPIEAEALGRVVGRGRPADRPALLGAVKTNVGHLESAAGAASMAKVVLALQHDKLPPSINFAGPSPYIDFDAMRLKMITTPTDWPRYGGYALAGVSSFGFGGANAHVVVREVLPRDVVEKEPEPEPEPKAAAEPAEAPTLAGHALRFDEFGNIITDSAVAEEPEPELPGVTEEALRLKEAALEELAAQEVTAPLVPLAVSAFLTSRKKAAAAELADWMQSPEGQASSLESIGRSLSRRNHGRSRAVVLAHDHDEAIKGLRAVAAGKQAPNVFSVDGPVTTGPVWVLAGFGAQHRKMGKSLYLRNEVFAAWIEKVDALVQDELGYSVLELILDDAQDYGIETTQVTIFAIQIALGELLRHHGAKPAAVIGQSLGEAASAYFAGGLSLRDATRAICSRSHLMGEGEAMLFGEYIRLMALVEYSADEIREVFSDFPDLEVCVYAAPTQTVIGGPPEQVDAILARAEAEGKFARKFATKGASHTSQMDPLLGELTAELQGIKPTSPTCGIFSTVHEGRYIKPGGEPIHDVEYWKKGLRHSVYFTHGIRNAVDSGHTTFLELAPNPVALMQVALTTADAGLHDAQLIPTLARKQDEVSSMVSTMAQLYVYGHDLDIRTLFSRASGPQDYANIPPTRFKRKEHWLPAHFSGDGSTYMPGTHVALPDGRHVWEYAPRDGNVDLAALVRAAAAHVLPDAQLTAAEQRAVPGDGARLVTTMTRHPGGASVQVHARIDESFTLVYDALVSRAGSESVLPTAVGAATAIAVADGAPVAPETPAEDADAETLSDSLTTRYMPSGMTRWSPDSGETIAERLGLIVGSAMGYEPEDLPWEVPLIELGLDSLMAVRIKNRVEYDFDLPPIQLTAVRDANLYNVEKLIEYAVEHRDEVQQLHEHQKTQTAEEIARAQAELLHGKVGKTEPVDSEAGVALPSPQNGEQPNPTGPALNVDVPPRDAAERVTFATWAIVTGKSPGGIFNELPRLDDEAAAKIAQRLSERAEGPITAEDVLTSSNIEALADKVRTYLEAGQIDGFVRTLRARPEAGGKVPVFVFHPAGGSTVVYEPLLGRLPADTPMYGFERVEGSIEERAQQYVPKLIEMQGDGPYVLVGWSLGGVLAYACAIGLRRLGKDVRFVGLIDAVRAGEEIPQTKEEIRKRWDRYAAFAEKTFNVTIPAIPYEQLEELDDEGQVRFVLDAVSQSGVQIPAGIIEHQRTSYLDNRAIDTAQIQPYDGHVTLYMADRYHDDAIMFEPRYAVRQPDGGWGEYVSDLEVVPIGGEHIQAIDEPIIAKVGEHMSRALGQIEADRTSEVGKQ

LiHisRS: 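Enzyme assay of histidyl-tRNA synthetase; the read-out is not stated. Target: Histidine-tRNA ligase, Leishmania infantum (UniProt A4I591). Concentration: 30 µM. Direction is inferred from retests: higher values go with stronger inhibition. The assay is labelled LdHisRS but filed under L. infantum. About 69,000 compounds were tested under these conditions; 0.6% (about 410) showed 50% or more at least once.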
Pks13 thioesterase: 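Enzyme assay of the thioesterase domain of polyketide synthase 13; the read-out is not stated. Target: Polyketide synthase Pks13, Mycobacterium tuberculosis (UniProt I6X8D2). Concentration: 30 µM. Higher reads as stronger inhibition (inferred from which compounds were picked for retests). Size under these conditions: about 67,000 compounds, about 300 of them at 50% or above in at least one test.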

Each number is a percent effect as filed.
How 0% and 100% were set is not recorded. Most values in the screen are low, and negative values occur.
Compounds were drawn at random from those tested, without regard to their results.
A dash means the value is not listed here; it may have been measured.

structure	LiHisRS	Pks13 thioesterase
CNC(=O)[C@H]1C[C@@H]2CCN(Cc3ccc4c(c3)OCO4)C[C@@H]2O1	14.55	-11.45
O=C(N1CCOCC1)N1CCc2[nH]nc(COc3cccc(Cl)c3)c2C1	0	-2.412
Cc1nc(CCCNC(=O)C2CC(=O)N(C3CCCC3)C2)sc1C (stereo not drawn)	14.4	5.308
CCCC(C)Sc1nnnn1C1CCOCC1 (stereo not drawn)	8.065	-3.999
c1cc2c(cc1-n1nc(C3CC3)nc1-c1csnn1)OCCO2	1.042	-82.48
Cc1cc(CN(C)C(=O)NC2CCN(S(C)(=O)=O)CC2)no1	4.959	-14.1
CC1=C(c2ccc(F)cc2)S(=O)(=O)N=C1N1CCc2ccccc21	11.24	-2.87
C(=C/c1ccc(CN2CCCC2)cn1)\c1ccccc1	22.58	16.95
CC(=O)N[C@H]1CCN(c2nc(C)nc3c2c(C)nn3C)C1	25.71	-39.71
CC(C(=O)N1CCC(Nc2cccnn2)CC1)n1cccn1 (stereo not drawn)	-10.71	-9.267
O=C1N(c2ccc(F)cc2)Cc2n[nH]c(=O)n21	0	-4.616
Cc1nn(C)c(Cl)c1CNCc1ccc(OCC(N)=O)cc1	20.27	-17.61
CCC1c2cccn2CCN1S(=O)(=O)N1CCOCC1 (stereo not drawn)	1.408	-
O=C(O)[C@]12CCCN(Cc3nccs3)[C@@H]1CCN(c1cnccn1)C2	10.42	-14.42
Cc1ccc(C)c(S(=O)(=O)CCN2CCCC2Cn2cncn2)c1 (stereo not drawn)	20.65	-4.975
CCOC(=O)N1CCN(C(=O)C(CC)n2cccn2)CC1 (stereo not drawn)	9.677	-0.6792
CCC(Nc1cccc(OC)c1)C(=O)N(CCOC)Cc1cnn(C)c1 (stereo not drawn)	10.75	-15.68
CCOCn1cc(NC(=O)C2CCN(S(C)(=O)=O)CC2)cn1	18.56	17.93
Cc1ccsc1CN1C[C@@H]2COC[C@]2(CNC(=O)c2ccco2)C1	21	-
O=C([C@@H]1CCCN1c1nccc(Nc2ccccc2)n1)N1CCCCC1	1.98	-20.91
O=C(Cc1nc(-c2ccncc2)n[nH]1)NCCCN1CCOCC1	8.434	-1.369
CC(C)c1ccc(O)c(C(=O)NCc2nncn2C)c1	14.52	-7.278
CCCc1c(C2CCOC(C)(C)C2)nc(N)c(C#N)c1-c1cnn(C)c1 (stereo not drawn)	20.21	0.6118
O=C(NCCn1ccnc1)c1csc2c1CCCC2	2.74	-11.75
Cc1ncccc1C(=O)NC1CC(=O)N(CC(F)(F)F)C1 (stereo not drawn)	6.667	5.337
CN1CCN(c2nc(O)cc(Cc3ccccc3F)n2)CC1	8.511	1.481
O=C(CC1CCCC1)NCCS(=O)(=O)N1CCN(c2ccccn2)CC1	20	4.111
CN(C)S(=O)(=O)c1ccc(=O)n(CC2CCCO2)c1 (stereo not drawn)	8.85	-1.517
CC(C)Nc1ncnc2c1CCN(C(=O)N1CCOCC1)CC2	2.752	-10.32
O=C(c1ccn(-c2ccccc2Cl)n1)N1CCSCC1	16.98	-19.62
O=S(=O)(NCC1CCN(c2cnccn2)CC1)c1ccc(F)c(Cl)c1	10.96	37.95
CCC(c1nc(C(C)C)nn1-c1ccncc1C)n1cccn1 (stereo not drawn)	13.13	-24.91
COCc1nc(C2CC2)nn1-c1cc(Cl)ccc1OC	10.85	-31.63
CC(C)OCCCNC(=O)CS(=O)(=O)Cc1ccc(C(C)(C)C)cc1	11.54	4.332
O=C(CCc1ccccc1)N1CCC(c2n[nH]c(C3CC3)n2)CC1	16.13	-27.52
CN1CCN(C2COC3(CCN(Cc4ccsc4)CC3)C2)CC1 (stereo not drawn)	18	-9.923
Cc1ccc(CC(=O)N2CCCn3nnc(Cn4cccn4)c3C2)cc1	28.95	-33.58
COCCN1CCCC1(C)c1nc(C)cc(N)n1 (stereo not drawn)	8.451	-4.439
CO[C@H]1CO[C@@]2(CCCN(C(=O)N(C)C)C2)C1	13.64	-2.033
CCOCC1CN(C(=O)c2cc(C)oc2C)Cc2c1cnn2C (stereo not drawn)	7.692	-3.144
CC(Cn1cncn1)NCc1nncn1C1CCCCC1 (stereo not drawn)	20.19	-9.682
Cn1ccnc1-c1cn(Cc2cn3c(n2)SCC3)nn1	37.93	-27.03
CC(C)c1csc(C(=O)N(C)c2ccc(Br)cn2)n1	-1.37	9.866
COC(=O)CC1CCN(C(=O)c2ccccc2-n2nnnc2C)CC1	4.348	-10.33
O=C(C1CCCC1)N1CCC(c2ccnc(Nc3cnccn3)n2)C1 (stereo not drawn)	3.125	-19.98
Cc1ccc(F)cc1-n1c(CCCN2CCOCC2)n[nH]c1=O	12.59	-19.95
Cc1c(C(=O)N2CCCC(O)(CN(C)C)CC2)c2cc(O)ccc2n1C (stereo not drawn)	22.37	20.18
O=C(Nc1cc(-n2cccc2)ccc1F)N1CCCC1	9.649	3.994
O=C1C[C@H]2[C@@H](CCN2C(=O)c2ccoc2)N1CCN1CCOCC1	6.452	0.1537
O=C1NC[C@@]2(C(=O)O)CN(Cc3cccc(CN4CCOCC4)c3)C[C@@H]12	-24.24	-20.25
Cc1cc(C)n(CC(=O)NC(Cc2ccsc2)c2ccccn2)c(=O)n1 (stereo not drawn)	25	-34.05
COC(=O)[C@@H]1C[C@@H](NC(=O)CN2C(=O)N(C)Cc3ccccc32)CN1C	-19.17	-36.7
CSC1=Nc2c(cnn2-c2ccc(C)cc2)C2=NCCCN12	8.276	-6.47
Cc1cc(C)c2c(N3CCN(C(=O)N4CCOCC4)CC3)ncnc2n1	20.41	-2.164
COc1cccc(N2CCN(C(=O)c3ccc(=O)n(C)c3)CC2)c1	13.7	3.046
Cc1cnn(CCCNCc2csc(COc3ccccc3)n2)c1	19.35	16.68
CCN1CCC(CC(=O)N2CCn3cccc3C2c2cccnc2)CC1 (stereo not drawn)	17.46	5.039
CN1CCCC1c1cncc(C(=O)NCc2ccccc2)n1 (stereo not drawn)	8.511	2.093
N#Cc1c2n(c3c(N)ncnc13)CCCCC2	-3.371	-37.35
O=C(N[C@@H]1CNCCC[C@H]1O)c1ccc(OCCN2CCCC2)cc1	22.22	-14.87
Cc1cnn(CCC(=O)N2CCCC(c3nc(C)c(C)s3)C2)c1 (stereo not drawn)	9.649	-6.676
COc1nc(C)ccc1CNC(=O)NC(C)(C)c1ncc(C)s1	14.04	-11.65
CC(=O)NCCNC(=O)c1sccc1Br	19.74	-20.25
CC1CCN(C(=O)C2CCCN(C(=O)Nc3ccccn3)C2)CC1 (stereo not drawn)	10.67	-46.4
CC(C)(C)c1cn(C2CCN(C(=O)c3cncnc3)CC2)nn1	-4.255	-20.67
CC(C)CCN1C[C@H]2CCN(C(=O)NC3CCCC3)CC[C@H]2S1(=O)=O	17.95	11.57
Cc1cc(Cl)c(C)c(S(=O)(=O)N2CCN(Cc3ccncc3)CC2)c1Cl	10.84	18.86
CCOc1ccccc1-n1c(CNC)n[nH]c1=O	0	-20.15
COc1c(C(=O)NCc2cccnc2)nnn1Cc1ccc(C)cc1	7.767	-24.6
O=C(COCCc1ccccc1)N1CCCC(n2cncn2)C1 (stereo not drawn)	13.16	4.231
Cn1cc(CN2CC(C(=O)Nc3ccccc3)C3(CCOCC3)C2)cn1 (stereo not drawn)	17.81	-30.59
O=C1CSC(c2ccc(F)c(Cl)c2)c2c(n(C3CCOCC3)[nH]c2=O)N1 (stereo not drawn)	15.79	-32.04
O=C(Nc1ccccc1)c1ccc(NCc2ccccc2CO)nn1	23.94	-34.64
Cc1cc(C(=O)N2CCCC2CN2CCCC2)no1 (stereo not drawn)	-5.333	-3.66

For reference, 7 entries once more:

* O=C(Nc1cc(-n2cccc2)ccc1F)N1CCCC1 | LiHisRS: 9.649%; Pks13 thioesterase: 3.994%
* O=C(O)[C@]12CCCN(Cc3nccs3)[C@@H]1CCN(c1cnccn1)C2 | LiHisRS: 10.42%; Pks13 thioesterase: -14.42%
* Cn1cc(CN2CC(C(=O)Nc3ccccc3)C3(CCOCC3)C2)cn1 (stereo not drawn) | LiHisRS: 17.81%; Pks13 thioesterase: -30.59%
* O=S(=O)(NCC1CCN(c2cnccn2)CC1)c1ccc(F)c(Cl)c1 | LiHisRS: 10.96%; Pks13 thioesterase: 37.95%
* CO[C@H]1CO[C@@]2(CCCN(C(=O)N(C)C)C2)C1 | LiHisRS: 13.64%; Pks13 thioesterase: -2.033%
* CN1CCN(c2nc(O)cc(Cc3ccccc3F)n2)CC1 | LiHisRS: 8.511%; Pks13 thioesterase: 1.481%
* CCC(c1nc(C(C)C)nn1-c1ccncc1C)n1cccn1 (stereo not drawn) | LiHisRS: 13.13%; Pks13 thioesterase: -24.91%

Source: ChEMBL document CHEMBL3988442, “University of Dundee, Small-Polar-MMV Screening Library” (2021).